PubChem BioAssay AID720505 – Drosophila RNAi Screening Center, 2013
Screen: 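Fly regulators or components of the CRAC channel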 (primary screen). System: Drosophila S2R+ cells. Reagents: long dsRNA against Drosophila genes. Challenge: thapsigargin (2 µM) in calcium-free buffer to empty internal stores, then 2 mM calcium added back. Measured: 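Fluo-4 signal in 384-well plates read on a FLIPR after thapsigargin (2 µM, calcium-free) store depletion and 2 mM calcium add-back; unnormalised mean endpoint per well; screen run twice, selected wells retested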. Scale: calcium signal and retest calcium signal: higher = more calcium entry after store depletion. Hit rule: 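About 1500 genes called as lowering calcium entry, by varying amounts, judged against per-plate control wells with STIM1 as positive and Rho1 as negative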. Calls: active = called as lowering calcium entry; inactive = not called.
The deposit covers about 20,000 reagents; below is a random part of those with a known target gene and a result. Of all reagents, about 2,100 (10%) were called active. 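Raw plate signals without normalisation; calls rest on control-based scores that were not deposited; replicate 2 separates called from uncalled poorly.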 A number with no mark means an inactive call. A plus sign joins genes that one reagent is predicted to hit. No sequences are given here. Not given: the amount of reagent, the time to read-out.

CG11537 [DRSC08200] | calcium signal, replicate 1 = 69.9 (active); calcium signal, replicate 2 = 124
TwdlM (TweedleM) [DRSC15810] | calcium signal, replicate 1 = 98.9; calcium signal, replicate 2 = 83.5
CG17271 [DRSC15210] | calcium signal, replicate 1 = 159; calcium signal, replicate 2 = 171
CG17271 [DRSC22629] | calcium signal, replicate 1 = 126; calcium signal, replicate 2 = 213
CG17271 [DRSC22982] | calcium signal, replicate 1 = 127; calcium signal, replicate 2 = 114
CG13068 [DRSC09951] | calcium signal, replicate 1 = 69.2; calcium signal, replicate 2 = 140
RpS27 (Ribosomal protein S27) [DRSC14244] | calcium signal, replicate 1 = 148 (active); calcium signal, replicate 2 = 116
SerT (Serotonin transporter) [DRSC04655] | calcium signal, replicate 1 = 146; calcium signal, replicate 2 = 129
CG10345 [DRSC14138] | calcium signal, replicate 1 = 227; calcium signal, replicate 2 = 218
CG14495 [DRSC06466] | calcium signal, replicate 1 = 96; calcium signal, replicate 2 = 120
CG15014 [DRSC08468] | calcium signal, replicate 1 = 97; calcium signal, replicate 2 = 96.3
CG32647 [DRSC19690] | calcium signal, replicate 1 = 115; calcium signal, replicate 2 = 106
CG32647 [DRSC19878] | calcium signal, replicate 1 = 81; calcium signal, replicate 2 = 98.5
Aatf (Apoptosis antagonizing transcription factor) [DRSC02131] | calcium signal, replicate 1 = 126; calcium signal, replicate 2 = 96.5
Syn1 + CG7370 [DRSC22768] | calcium signal, replicate 1 = 163; calcium signal, replicate 2 = 220
ImpL2 (Ecdysone-inducible gene L2) [DRSC08666] | calcium signal, replicate 1 = 67 (active); calcium signal, replicate 2 = 86.7
Torsin [DRSC18570] | calcium signal, replicate 1 = 130; calcium signal, replicate 2 = 90.7; retest calcium signal, replicate 1 = 213; retest calcium signal, replicate 2 = 196
alpha-Man-IIa (alpha-Mannosidase class II a) [DRSC15393] | calcium signal, replicate 1 = 104; calcium signal, replicate 2 = 94.1
CG31076 [DRSC16017] | calcium signal, replicate 1 = 178; calcium signal, replicate 2 = 123
CG13670 [DRSC10029] | calcium signal, replicate 1 = 84.3; calcium signal, replicate 2 = 84.2
Atg16 (Autophagy-related 16) [DRSC15052] | calcium signal, replicate 1 = 143; calcium signal, replicate 2 = 100
Atg16 (Autophagy-related 16) [DRSC15300] | calcium signal, replicate 1 = 158; calcium signal, replicate 2 = 155
Atg16 (Autophagy-related 16) [DRSC15375] | calcium signal, replicate 1 = 153; calcium signal, replicate 2 = 160
CG15199 [DRSC19646] | calcium signal, replicate 1 = 66.9; calcium signal, replicate 2 = 92.3
CG14391 [DRSC14850] | calcium signal, replicate 1 = 165; calcium signal, replicate 2 = 103
Dph2 (Diphthamide biosynthesis 2) [DRSC16222] | calcium signal, replicate 1 = 102; calcium signal, replicate 2 = 118
Bet1 (Blocked early in transport 1) [DRSC10088] | calcium signal, replicate 1 = 70.3 (active); calcium signal, replicate 2 = 99.7
CG5274 [DRSC11774] | calcium signal, replicate 1 = 125; calcium signal, replicate 2 = 106

Records above whose target name starts with A or a (5):
Aatf (Apoptosis antagonizing transcription factor) [DRSC02131] | calcium signal, replicate 1 = 126; calcium signal, replicate 2 = 96.5
alpha-Man-IIa (alpha-Mannosidase class II a) [DRSC15393] | calcium signal, replicate 1 = 104; calcium signal, replicate 2 = 94.1
Atg16 (Autophagy-related 16) [DRSC15052] | calcium signal, replicate 1 = 143; calcium signal, replicate 2 = 100
Atg16 (Autophagy-related 16) [DRSC15300] | calcium signal, replicate 1 = 158; calcium signal, replicate 2 = 155
Atg16 (Autophagy-related 16) [DRSC15375] | calcium signal, replicate 1 = 153; calcium signal, replicate 2 = 160
